# From patent US12728116B2, “Methods of treating multiple sclerosis” (Vanda Pharmaceuticals Inc., priority 2021, dated 2026)
# System: adult subjects with relapsing MS
# Test: Premature treatment discontinuation
# Assay type: in vivo
# Procedure: A total of 1468 subjects were screened. Of those, 1133 subjects were randomized (567 to ponesimod 20 mg and 566 to teriflunomide 14 mg) across 162 sites in 28 countries, and 1131 subjects received at least one dose of study drug. The disposition of subjects is summarized in Table 1 and a summary of reasons (primary reason) for treatment discontinuation are shown in Table 2. Overall treatment and study discontinuation were balanced across both treatment arms. A total of 6.5% and 2.5% of the subjects discontinued due to AEs or tolerability related reasons in ponesimod 20 mg and teriflunomide 14 mg, respectively, while 1.9% and 4.3% discontinued due to efficacy related reasons. There were 2 deaths reported during the study—both on teriflunomide 14 mg.
compound,measurement,setting,value
"CCC/N=C1\S/C(=C\c2ccc(OC[C@H](O)CO)c(Cl)c2)C(=O)N1c1ccccc1C [Ponesimod, (R)-5-[3-chloro-4-(2,3-dihydroxy-propoxy)-benz[Z]ylidene]-2-([Z]-propylimino)-3-o-tolyl-thiazolidin-4-one]","Premature discontinuation: Physician decision, Lack of efficacy/treatment failure, %",Safety Set,(0.7) %
same,"Premature discontinuation: Subject decision, Efficacy related, %",Safety Set,(1.2) %
same,"Subjects who prematurely discontinued study treatment, %",Safety Set,(16.6) %
same,Subjects discontinued due to efficacy related reasons,"ponesimod 20 mg, teriflunomide 14 mg",1.9%
